Experimental data taken from EP4353258A1.
Positions count from the first letter of the chain named. No constants are given. Whether binding was seen depends on the method and setting. A result given as binding can be weak or reduced; the word gives no strength. Blank lines part the entries; values can stand above or below the binder they belong to.

Key:
CD206 = assay: conclusion from flow cytometry and ELISA of Example 4
[1] = biological target: CD206 expressed on HEK293T cells (co-expressed with Venus) (Mus musculus (Mouse)); assay: flow cytometry, APC-labelled antibody on HEK293T cells expressing CD206 and Venus

B1: anti-CD206 antibody (No. 54) (antibody, V domains shown)
VH: EVQLVESGGGLVQPKGSLKLSCAASGFSFNTYTMNWVRQAPGKGLEWVARIRSKSNNYETYYADSVKDRFTISRDDSESMLYLQMNNLKTEDTAMYYCVSPDSDSWFAYWGQGTLVTVSA
VL: DIQMNQSPSSLSASLGDTITIACHASQNINVWLSWYQQKPGNIPKLLIYKASNLHTGVPSRFSGSGSGTGFTLTISSLQPEDIATYYCQQGQSYPLTFGGGTKLEIK
binding (CD206): binds
binding [1]: binds

B3: anti-CD206 antibody (No. 72) (antibody, V domains shown)
VH: QVQLQQPGAELVRPGSSVKLSCKASGYTFTTYWMHWVKQRPIQGLEWIGNIDPSDSETHYNQKFKDKATLTVDKSSSTAYMQLNSLTSEDSAVYYCARGDGYYVYFAYWGQGTTLTVSS
VL: EIVLTQSPALMAASPGEKVTITCSVSSSISSSNLHWYQQKSETSPKPWIYATSNLASGVPVRFSGSGSGTSYSLTISSMAAEDAATYFCQQWSSFPLTFGAGTKLELK
binding (CD206): binds
binding [1]: binds

B4: anti-CD206 antibody (No. 10) (antibody, V domains shown)
VH: QVQLQQPGAELVRPGSSVKLSCKASGYTFISYWMDWVKQRPGQGLEWIGNIFPSDSETHYNQKFRDKATLTVDKSSSTASIHLSSLTSEDSAVYYCGRRDSSGWIDYWGQGTTLTVSS
VL: DIQMTQTTSSLSASLGDRVTISCRASQDISNYLNWYQQKPDGTVKLLIYYTSRFHSGVPSRFSGSGSGTDYSLTIHNVEQEDIATYFCQQSSMLPFTFGSGTKLEMK
binding (CD206): binds
binding [1]: binds

B5: anti-CD206 antibody (No. 47) (antibody, V domains shown)
VH: B4 VH with I30T, F52Y, R65K, K67R, S77T, S80Y, I81M, H82Q, G97T
VL: B4 VL with F54L, S65R, H76S, V78L, S91G, S92N, M93T, K103Q, M106I
binding (CD206): binds
binding [1]: binds

B6: anti-CD206 antibody (No. 73) (antibody, V domains shown)
VH: QVQLKQSGAELVKPGASVKISCKASGYTFTDYYINWVKQRPGQGLEWIGKIGPGSGSTYYNEKFKGKATLTADKSSSTAYMQLSSLTSEDSAVYFCARIGSSFFDYWGQGTTLTVSS
VL: DIKMTQSPSSMYASLGERVTITCKASQDINSYLSWFQQKPGKSPKTLIYRANRLVDGVPSRFSGSGSGQDYSLTISSLEYEDMGIYYCLQYDEFPLTFGAGTKLELK
binding (CD206): binds

B7: anti-CD206 antibody (No. 83) (antibody, V domains shown)
VH: QVQLLQSGAELVRPGTAVKMSCKASEYTFTNYWIGWARQRPGHGLEWIGDIYPGGGYINYNEKFKGKATLTADKSSSTVYMQFSSLTSEDSAIYYCARGGSNYVGHFDYWGQGTTLTVSS
VL: DIQMTQTTSSLSASLGDRVTISCRASQDISNYLNWYQQKPDGTVKLLIYYTSILHSRVPSRFSGSGSGTDYSLTISNLEQEDIATYFCQHGHTLPWTFGGGTKLEIK
binding (CD206): binds
binding [1]: binds

B9: anti-CD206 antibody (No. 40) (antibody, V domains shown)
VH: QVQLQQSGAELVRPGTSVKVSCKASGYAFTNYLIEWVKQRPGQGLEWIGVINPGSGGTNYNEKFKGKATLTADKSSSTAYMQLSSLTSEDSAVYFCARDYGSTFDYWGQGTTLTVSS
VL: DIVLTQSPATLSVTPGDSVSLSCRASQSISSNLHWYQQKSHESPRLLINFASQSISGIPSRFSGSGSGTDFTLNINTVETEDFGMYFCQQSNSWPLTFGAGTKLELK
binding (CD206): binds

B10: anti-CD206 antibody (No. 44) (antibody, V domains shown)
VH: QVQLQQSGAELVRPGTSVKVSCKASGYAFTDYLIEWVKQRPGQGLEWIGVINPGRGGTNYNEKFKGKATLTADKSSSTAYMQLSSLTSEDSAVYFCARYYGRSFGYFDVWGTGTTVTVSS
VL: DIQMTQSPASQSASLGESVTITCLASQTIGTWLAWYQQKPGKSPQLLIYAATSLADGVPSRFSGSGSGTKFSFKISSLQAEDFVSYYCQQLYSPPLTFGAGTKLELK
binding (CD206): binds
binding [1]: binds

More lines, now with the values ahead:

binding (CD206): binds
binding [1]: binds
B2: anti-CD206 antibody (No. 27) (antibody, V domains shown)
VH: QVQLQQPGAELVKPRASVKLSCRASGYIFISYWMQWVKQRPGQGLEWIGEIDPSDSYINYNQKFKGKASLTVDTSSNTAYMQLSSLTSEDSAVYYCATGDMGDDFYAMDYWGQGTSVTVSS
VL: DIVMNQDELSNPVTSGESVSISCRSSKSLLYKDGKTYLNWFLQRPGQSPQLLIYLMSTRASGVSDRFSGSGSGTDFTLEISRVKAEDVGVYYCQQLVEYPFTFGGGTKLEIK

binding (CD206): binds
B8: anti-CD206 antibody (No. 59) (antibody, V domains shown)
VH: QVQLQQPGAELVKPGASVKMSCKASGYTFSTYWITWVKQRPGQGLEWIGDIYPGGDSTNYNEKFKSKATLTEDTSSSTVYMQLSSLTSEHSAVYYCARGITGGYFDYWGQGTTLTVSS
VL: B7 VL with S22T, Q38R, K45R, I53G, R57G, I83F, H90Q, K103N

binding (CD206): binds
binding [1]: binds
B11: anti-CD206 antibody (No. 35) (antibody, V domains shown)
VH: QVQLQQPGAELVKPGASVKVSCKASGYTFTTYWMHWVKQRPGQGLEWIGRIHPSDSDSNYNQKFKGKATLTVDKSSSTAYMQLSSLTSEDSAVYYCAIGRGFAYWGQGTLVTVSA
VL: DIVLTQSPASLAVSLGQRAAISCRASESVDNYGNSFMHWYQQKPGQPPKLLIYRASNLESGIPARFSGSGSRTDFTLTINPVEADDVATYYCQQGNEDPYTFGGGTKLEIK
